This is an account of results in article PMC4132184.

Sequences of proteins named here, by UniProt entry; tags and fusion partners are left off. A change or cut given only in a name is not applied to a line headed by its entry.
UniProt Q23463: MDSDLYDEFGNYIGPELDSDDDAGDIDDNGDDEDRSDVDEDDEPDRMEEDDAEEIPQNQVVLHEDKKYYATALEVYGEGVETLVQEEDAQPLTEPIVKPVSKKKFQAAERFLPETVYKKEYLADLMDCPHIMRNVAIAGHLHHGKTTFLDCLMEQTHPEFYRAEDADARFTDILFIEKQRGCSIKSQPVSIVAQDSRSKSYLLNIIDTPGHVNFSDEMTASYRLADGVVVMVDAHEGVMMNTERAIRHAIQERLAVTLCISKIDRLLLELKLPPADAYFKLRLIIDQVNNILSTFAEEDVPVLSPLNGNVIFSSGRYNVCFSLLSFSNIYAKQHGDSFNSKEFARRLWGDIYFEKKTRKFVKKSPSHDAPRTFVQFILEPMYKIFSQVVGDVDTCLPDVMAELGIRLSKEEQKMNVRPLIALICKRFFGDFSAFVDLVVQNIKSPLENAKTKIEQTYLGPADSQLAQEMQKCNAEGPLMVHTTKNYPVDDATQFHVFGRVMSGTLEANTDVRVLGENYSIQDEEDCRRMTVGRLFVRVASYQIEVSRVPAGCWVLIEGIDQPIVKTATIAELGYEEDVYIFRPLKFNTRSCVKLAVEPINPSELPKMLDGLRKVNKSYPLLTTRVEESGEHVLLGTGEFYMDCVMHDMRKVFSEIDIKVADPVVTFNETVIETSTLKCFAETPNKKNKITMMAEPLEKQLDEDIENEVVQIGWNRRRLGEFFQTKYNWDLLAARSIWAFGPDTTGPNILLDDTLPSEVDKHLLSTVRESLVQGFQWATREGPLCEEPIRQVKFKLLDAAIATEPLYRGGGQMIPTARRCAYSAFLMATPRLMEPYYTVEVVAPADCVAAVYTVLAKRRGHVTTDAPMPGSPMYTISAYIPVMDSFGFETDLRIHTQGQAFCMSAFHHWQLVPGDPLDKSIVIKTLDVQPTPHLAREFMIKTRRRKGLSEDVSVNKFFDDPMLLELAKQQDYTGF
UniProt Q22836: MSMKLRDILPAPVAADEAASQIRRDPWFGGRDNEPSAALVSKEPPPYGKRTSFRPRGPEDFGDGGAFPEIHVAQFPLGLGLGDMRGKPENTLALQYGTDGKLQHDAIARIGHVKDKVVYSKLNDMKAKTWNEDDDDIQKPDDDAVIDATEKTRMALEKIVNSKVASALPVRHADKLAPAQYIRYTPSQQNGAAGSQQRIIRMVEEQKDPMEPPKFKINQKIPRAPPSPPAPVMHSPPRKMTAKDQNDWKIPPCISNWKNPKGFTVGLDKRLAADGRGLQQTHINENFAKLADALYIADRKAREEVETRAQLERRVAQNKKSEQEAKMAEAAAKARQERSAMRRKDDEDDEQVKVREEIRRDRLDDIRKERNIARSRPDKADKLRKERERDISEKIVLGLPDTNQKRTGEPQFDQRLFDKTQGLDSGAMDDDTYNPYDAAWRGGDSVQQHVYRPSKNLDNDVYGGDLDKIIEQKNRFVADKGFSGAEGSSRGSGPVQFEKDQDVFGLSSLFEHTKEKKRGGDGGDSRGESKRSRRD
UniProt Q9GRZ1: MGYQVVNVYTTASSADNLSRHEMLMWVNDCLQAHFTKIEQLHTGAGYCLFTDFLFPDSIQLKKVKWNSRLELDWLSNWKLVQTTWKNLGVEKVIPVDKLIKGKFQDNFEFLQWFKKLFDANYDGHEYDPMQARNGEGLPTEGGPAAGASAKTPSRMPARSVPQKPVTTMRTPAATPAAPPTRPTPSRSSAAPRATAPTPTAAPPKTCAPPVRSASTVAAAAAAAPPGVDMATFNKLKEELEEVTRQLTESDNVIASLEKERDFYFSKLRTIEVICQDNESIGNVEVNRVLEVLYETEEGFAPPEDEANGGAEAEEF
UniProt O44729: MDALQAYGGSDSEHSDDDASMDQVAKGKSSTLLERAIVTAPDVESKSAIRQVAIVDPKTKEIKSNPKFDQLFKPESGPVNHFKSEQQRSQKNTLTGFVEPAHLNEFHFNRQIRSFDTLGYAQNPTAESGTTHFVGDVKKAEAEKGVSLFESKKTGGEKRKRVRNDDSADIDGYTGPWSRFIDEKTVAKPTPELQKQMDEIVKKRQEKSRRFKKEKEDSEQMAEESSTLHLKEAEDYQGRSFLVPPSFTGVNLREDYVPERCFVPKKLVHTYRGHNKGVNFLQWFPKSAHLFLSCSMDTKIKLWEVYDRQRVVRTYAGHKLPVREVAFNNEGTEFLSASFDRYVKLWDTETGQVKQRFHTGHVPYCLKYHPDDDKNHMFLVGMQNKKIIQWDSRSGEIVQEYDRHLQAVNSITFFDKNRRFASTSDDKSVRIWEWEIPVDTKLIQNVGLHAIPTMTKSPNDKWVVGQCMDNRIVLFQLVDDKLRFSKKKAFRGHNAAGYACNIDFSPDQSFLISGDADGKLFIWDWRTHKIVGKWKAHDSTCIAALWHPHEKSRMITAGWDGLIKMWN

The assay concerns the target T1, FLAG::HA::CACN-1A (C. elegans) (UniProt G5EG14).
T1 sequence: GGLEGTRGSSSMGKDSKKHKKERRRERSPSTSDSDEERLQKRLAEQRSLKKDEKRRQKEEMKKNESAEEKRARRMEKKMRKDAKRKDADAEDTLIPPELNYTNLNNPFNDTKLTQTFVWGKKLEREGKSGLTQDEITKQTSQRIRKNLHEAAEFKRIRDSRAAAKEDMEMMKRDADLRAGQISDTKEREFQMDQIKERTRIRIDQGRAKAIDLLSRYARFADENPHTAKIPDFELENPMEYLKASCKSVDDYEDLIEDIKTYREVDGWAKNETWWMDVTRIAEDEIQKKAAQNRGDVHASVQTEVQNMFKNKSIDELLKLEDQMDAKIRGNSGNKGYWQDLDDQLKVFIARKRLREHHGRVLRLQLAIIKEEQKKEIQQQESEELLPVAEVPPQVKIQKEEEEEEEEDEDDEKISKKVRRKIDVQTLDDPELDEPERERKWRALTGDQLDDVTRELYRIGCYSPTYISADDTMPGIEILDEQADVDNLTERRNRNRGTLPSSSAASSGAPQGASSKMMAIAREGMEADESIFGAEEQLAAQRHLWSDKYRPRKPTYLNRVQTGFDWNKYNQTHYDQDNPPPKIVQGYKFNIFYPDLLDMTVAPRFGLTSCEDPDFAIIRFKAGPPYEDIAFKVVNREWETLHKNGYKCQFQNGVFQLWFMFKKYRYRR
Briefly: affinity purification with mass spectrometry; tandem affinity purification: lysate of heat-shocked mixed-stage C. elegans expressing FLAG::HA::CACN-1A bound to anti-FLAG agarose, eluted with FLAG peptide, then anti-HA agarose, eluted with HA peptide; lysis buffer 50 mM Tris pH 7.5, 150 mM NaCl, 1 mM EDTA, 0.5% NP-40, 10% glycerol; N2 lysate as negative control; two independent biological replicates; LC-MS/MS of the eluates.

No constants are given. Whether binding was seen depends on the method and setting. In cells and extracts the contact can be indirect. Here binding means that the protein was enriched with, or labelled near, the bait; the list need not be complete. Sequences can lack the tags named with a protein.

Take eftu-2 (from UniProt Q23463): the binding entry is listed as “binds”. In the case of SKP-1 (from UniProt Q22836) it was “binds”; in that of EBP-1 (from UniProt Q9GRZ1), “binds”.

Consider PRP-17 (from UniProt O44729), for which the binding entry is “binds”. The same measure for EMB-4: “binds”. The same measure for ubl-1: “binds”.

B1: C07A9.2 (protein, UniProt P34313 1-147)
chain: MSLATKLRRVRKSPPEGWDLIEPTLEQFEAKMREAETEPHEGKRKTEINWPIFRIHHQRSRYVYDMYYKKAEISRELYEFCLTAKFADAALIAKWKKQGYENLCCVKCVNTRDSNFGTACICRVPKSKLDAERVIECVHCGCHGCSG
For B1, the binding result is recorded as “binds”.

B2: rsr-2 (protein, UniProt Q9U213 1-425)
chain: MYNGIGLQTARGSGTNGYVQSNLSHLMQARRKIEYNGEDDLRKMEAELNRKPNEEIMDHNRKRQIEVKCTEFEMLLEDKGLDDEDIERKVGEYRKNLLKQLESGELNVDEELSTKESHARRRAAANNRDKMRNALGLGEDYVPGSSMAKMNKSDVVGAAMESELPQKDDKEKLLETLRLHRKSKKKQESSSSSSSSSSSSESSSEDEKHRKDRKKKEKKQKLKEMEKRREKLRQKERELLAVSDKVKKEEPAESSDEEDSRKDQRKPREDRRRSVERQDQREDRRDRRRSPEDPRERRRSPEDRTVRRRSPERRRQQRSPSVERRKSPQRRDERRRRHDSSENERRSTATASKKSRMDELEVKQEPPSDSEDYIAKTNLAPIRVEKSAEKVEKSRKSSSESSSGSSDSDSSSDSSSSSDSSSDSE
For B2, the binding entry is listed as “binds”.

B3: PRP-19 (protein, UniProt Q10051 1-492)
chain: MSFVCGISGELTEDPVVSQVSGHIFDRRLIVKFIAENGTDPISHGELSEDQLVSLKSGGTGSAPRNVSGTSIPSLLKMLQDEWDTVMLNSFSLRQQLQIARQELSHSLYQHDAACRVISRLSKELTAAREALSTLKPHTSAKVDDDVSIDESEDQQGLSEAILAKLEEKSKSLTAERKQRGKNLPEGLAKTEELAELKQTASHTGIHSTGTPGITALDIKGNLSLTGGIDKTVVLYDYEKEQVMQTFKGHNKKINAVVLHPDNITAISASADSHIRVWSATDSSSKAIIDVHQAPVTDISLNASGDYILSASDDSYWAFSDIRSGKSLCKVSVEPGSQIAVHSIEFHPDGLIFGTGAADAVVKIWDLKNQTVAAAFPGHTAAVRSIAFSENGYYLATGSEDGEVKLWDLRKLKNLKTFANEEKQPINSLSFDMTGTFLGIGGQKVQVLHVKSWSEVVSLSDHSGPVTGVRFGENARSLVTCSLDKSLRVFSF
On to B3, for which the binding entry is listed as “binds”.

B4: mog-2 (protein, UniProt Q9BLB6 1-253)
chain: MVRLTTELFAERPQFVNSVNMREINLRGQKIPVIENMGVTRDQFDVIDLTDNDIRKLDNFPTFSRLNTLYLHNNRINYIAPDIATKLPNLKTLALTNNNICELGDIEPLAECKKLEYVTFIGNPITHKDNYRMYMIYKLPTVRVIDFNRVRLTEREAAKKMFKGKSGKKARDAIQKSVHTEDPSEIEPNENSSGGGARLTDEDREKIKEAIKNAKSLSEVNYLQSILASGKVPEKGWNRQMDQNGADGEAMES
As for B4, the binding entry is listed as “binds”.

B5: snr-6 (protein, UniProt Q9XTU6 1-90)
chain: MSTRKLNKVMVQPVNLIFRYLQNRTRVQIWLYEDVTHRLEGYIIGFDEFMNVVFDEAEEVNMKTKGRNKIGRILLKGDNITLIHAAQQEA
For B5, the binding result was “binds”.

B6: MOG-5 (protein, UniProt Q09530 1-1200)
chain: MDQLEHLSLVSKVLSEVENHFGVVEKDVAEFVIHLAQENPTFDKLKKALDSQGLGDQFDDSLTATILRIVQSMTAVKKKNKKGGDSKEDIKDSHKITLISDAKEEIKARLPALAMANTAKEKEDNEDDLMAQLEKMEGRYESEKRLQKESDSKRNRSRSRSRSRDRKRRRSRSGDRDRRRRSRSREDRRDRDRRDRDRDRDRGRGDRRGDDRQRDRRDRRDDGGARKSEVAEIGKIYDGRVNSIQSFGAFITLEGFRQKQEGLVHISQIRNERVQTVADVLKRGENVKVKVNKIENGKISLSMKEVDQNSGEDLNPRETDLNPDAIGVRPRTPPASTSSWMNPEASGVGQGPSTSIGGGKARVRISTPERWELRQMQGAGVLTATDMPDFDEEMGVLRNYDDESDGEDIEIELVEDEPDFLRGYGKGGAEIEPVKVVKNPDGSLAQAALMQGALSKERKETKIQAQRERDMDTQKGFSSNARILDPMSGNQSTAWSADESKDRNNKMKEMPEWLKHVTAGGKATYGRRTNLSMVEQRESLPIFALKKNLMEAMIDNQILVVVGETGSGKTTQMTQYAIEAGLGRRGKIGCTQPRRVAAMSVAKRVAEEYGCKLGTDVGYTIRFEDCTSQDTIIKYMTDGMLLRECLIDPDLSGYSLIMLDEAHERTIHTDVLFGLLKAAARKRPELKLIITSATLDSVKFSEYFLEAPIFTIPGRTFPVEILYTREPESDYLEAAHITVMQIHLTEPPGDVLVFLTGQEEIDTSCEVLYERMKSMGPDVPELIILPVYGALPSEMQTRIFDPAPAGKRKVVIATNIAETSLTIDGIFYVVDPGFVKQKIYNPKSGMDSLVVTPISQAAAKQRSGRAGRTGPGKCYRLYTERAFRDEMLPTPVPEIQRTNLASTLLQLKAMGINNLIDFDFMDAPPLDSMITALNTLHTLSALDGDGLLTKLGRRMAEFPLEPSLSKLLIMSVDLGCSEEVLTIVAMLNVQNIFYRPKEKQDHADQKKAKFHQPEGDHLTLLAVYNSWKNHHFSQPWCFENFIQVRSMKRAQDIRKQLLGIMDRHKLLMVSCGRDVSRVQKAICSGFFRNAAKRDPQEGYRTLTDGQNVYIHPSSACFQQQPEWVVYHELVMTTKEYMREVTAIDPKWLVEFAPSFFKIGDSTKLSTFKRNQKIDPLFDKYADANAWRITRVKKRIYNPNK
For B6, the binding entry is recorded as “binds”.
